Experimental data: the supplement of paper PMC11438910
The list shows a part of the results. The signal is at background level for most entries.

How the values were obtained:
Experiment in all cases: fluorescence intensity of antibody binding to polysaccharide-coupled beads; higher = stronger binding
[1] = molecular target: pneumococcal polysaccharide C-Poly-1
[2] = molecular target: pneumococcal polysaccharide C-Poly-2
[3] = molecular target: pneumococcal polysaccharide Pn1
[4] = molecular target: pneumococcal polysaccharide Pn10A
[5] = molecular target: pneumococcal polysaccharide Pn10B
[6] = molecular target: pneumococcal polysaccharide Pn10C
[7] = molecular target: pneumococcal polysaccharide Pn10F
[8] = molecular target: pneumococcal polysaccharide Pn11A
[9] = molecular target: pneumococcal polysaccharide Pn11B
[10] = molecular target: pneumococcal polysaccharide Pn11C
[11] = molecular target: pneumococcal polysaccharide Pn11D
[12] = molecular target: pneumococcal polysaccharide Pn11F
[13] = antibody concentration 0.1 ng/mL
[14] = antibody concentration 0.534724 ng/mL
[15] = antibody concentration 2.8593 ng/mL
[16] = antibody concentration 15.2894 ng/mL
[17] = antibody concentration 81.7561 ng/mL
[18] = antibody concentration 437.17 ng/mL
[19] = antibody concentration 2337.65 ng/mL
[20] = antibody concentration 12500 ng/mL

B1: 4-127.2 (protein)
chain 1: QVQLQESGPGLVKPSETLSLTCAVSGYSVNSGHGWTWIRQSPGKGLEWIGYIGGGSGSSNYNPSLKSRVTISKDTSNNQLSLKLRSLTTADTAMYYCARRVPADRSGNDYWGQGVLVTVSS
chain 2: QSVLTQPPSVSGDPGQRVTISCTGSSSNIGDYYGYWYQQFPGTAPKLLIFDDNNRPSGISDRFSGSKAGTSASLTITGLQPGDEADYYCGAWDGSLNAHVFGSGTKLTVL
For B1, the fluorescence intensity [1, 13] was 24.8 MFI, the fluorescence intensity [1, 14] was 25.2 MFI and the fluorescence intensity [1, 15] was 24.8 MFI. The fluorescence intensity [1, 16] was 25 MFI, the fluorescence intensity [1, 17] was 26.2 MFI and the fluorescence intensity [1, 18] was 32.2 MFI. The fluorescence intensity [1, 19] was 63 MFI, the fluorescence intensity [1, 20] was 347 MFI and the fluorescence intensity [2, 13] was 20 MFI. For the same binder, the fluorescence intensity [2, 14] was 20.5 MFI, the fluorescence intensity [2, 15] was 21 MFI and the fluorescence intensity [2, 16] was 20.8 MFI. The fluorescence intensity [2, 17] was 22 MFI, the fluorescence intensity [2, 18] was 25.5 MFI and the fluorescence intensity [2, 19] was 53.8 MFI. The fluorescence intensity [2, 20] was 290 MFI, the fluorescence intensity [3, 13] was 13 MFI and the fluorescence intensity [3, 14] was 13 MFI. For the same binder, the fluorescence intensity [3, 15] was 12.5 MFI, the fluorescence intensity [3, 16] was 12.2 MFI and the fluorescence intensity [3, 17] was 13.5 MFI. It also gave a fluorescence intensity [3, 18] of 15.8 MFI, a fluorescence intensity [3, 19] of 19.5 MFI and a fluorescence intensity [3, 20] of 54.8 MFI. The fluorescence intensity [4, 13] was 24 MFI, the fluorescence intensity [4, 14] was 26.5 MFI and the fluorescence intensity [4, 15] was 26 MFI. For the same binder, the fluorescence intensity [4, 16] was 26 MFI, the fluorescence intensity [4, 17] was 25.5 MFI and the fluorescence intensity [4, 18] was 26 MFI. It also gave a fluorescence intensity [4, 19] of 26.5 MFI, a fluorescence intensity [4, 20] of 51.5 MFI and a fluorescence intensity [5, 13] of 22 MFI. For the same binder, the fluorescence intensity [5, 14] was 24 MFI, the fluorescence intensity [5, 15] was 22.8 MFI and the fluorescence intensity [5, 16] was 22.5 MFI. It also gave a fluorescence intensity [5, 17] of 23 MFI, a fluorescence intensity [5, 18] of 24.5 MFI and a fluorescence intensity [5, 19] of 24.8 MFI. For the same binder, the fluorescence intensity [5, 20] was 41 MFI, the fluorescence intensity [6, 13] was 16 MFI and the fluorescence intensity [6, 14] was 16.5 MFI. It also gave a fluorescence intensity [6, 15] of 16 MFI, a fluorescence intensity [6, 16] of 17 MFI and a fluorescence intensity [6, 17] of 16 MFI. The fluorescence intensity [6, 18] was 16 MFI, the fluorescence intensity [6, 19] was 17.5 MFI and the fluorescence intensity [6, 20] was 26 MFI. The fluorescence intensity [7, 13] was 19.5 MFI, the fluorescence intensity [7, 14] was 20 MFI and the fluorescence intensity [7, 15] was 19 MFI. The fluorescence intensity [7, 16] was 18.5 MFI, the fluorescence intensity [7, 17] was 19.8 MFI and the fluorescence intensity [7, 18] was 19.5 MFI. It also gave a fluorescence intensity [7, 19] of 20.5 MFI, a fluorescence intensity [7, 20] of 22.5 MFI and a fluorescence intensity [8, 13] of 28.5 MFI. It also gave a fluorescence intensity [8, 14] of 27.5 MFI, a fluorescence intensity [8, 15] of 27.2 MFI and a fluorescence intensity [8, 16] of 27 MFI. It also gave a fluorescence intensity [8, 17] of 28.5 MFI, a fluorescence intensity [8, 18] of 34.2 MFI and a fluorescence intensity [8, 19] of 33 MFI. It also gave a fluorescence intensity [8, 20] of 42.5 MFI, a fluorescence intensity [9, 13] of 26 MFI and a fluorescence intensity [9, 14] of 27 MFI. For the same binder, the fluorescence intensity [9, 15] was 25.5 MFI, the fluorescence intensity [9, 16] was 25.5 MFI and the fluorescence intensity [9, 17] was 25.5 MFI. The fluorescence intensity [9, 18] was 26.2 MFI, the fluorescence intensity [9, 19] was 30 MFI and the fluorescence intensity [9, 20] was 34.5 MFI. For the same binder, the fluorescence intensity [10, 13] was 21.2 MFI, the fluorescence intensity [10, 14] was 21.5 MFI and the fluorescence intensity [10, 15] was 21.5 MFI. The fluorescence intensity [10, 16] was 22 MFI, the fluorescence intensity [10, 17] was 23.2 MFI and the fluorescence intensity [10, 18] was 22.8 MFI. It also gave a fluorescence intensity [10, 19] of 40.8 MFI, a fluorescence intensity [10, 20] of 286 MFI and a fluorescence intensity [11, 13] of 23 MFI. For the same binder, the fluorescence intensity [11, 14] was 22 MFI, the fluorescence intensity [11, 15] was 22 MFI and the fluorescence intensity [11, 16] was 24 MFI. The fluorescence intensity [11, 17] was 23 MFI, the fluorescence intensity [11, 18] was 22 MFI and the fluorescence intensity [11, 19] was 30 MFI. For the same binder, the fluorescence intensity [11, 20] was 124 MFI, the fluorescence intensity [12, 13] was 13 MFI and the fluorescence intensity [12, 14] was 14 MFI.
